{"source": "patent US7462695B2", "about": "“Insect chymotrypsin and inhibitors thereof” (Hexima Limited, priority 2003, dated 2008)", "test_system": "NaPI-insensitive chymotrypsins from H punctigera", "assay": "Inhibition of NaPI-insensitive chymotrypsins by StPotIA and StPotIB (FIG. 26)", "assay_type": "biochemical, Helicoverpa punctigera", "conditions": "300 nM inhibitor; pH 10.0", "method": "FIG. 26 is a graphical representation showing inhibition of NaPI-insensitive chymotrypsin by bacterially expressed StPotIA and StPotIB. Inhibition of the NAPI-insensitive chymotrypsin from the gut of H. punctigera with purified PotI. (A) substrate SA2PFpNA, development time 30 min, (B) substrate SA2PLpNA, 30 min incubation. Mix of PotI isoforms from potato tuber (circle), StPotIA (square), StPotIB (triangle).\nThe inhibitory activity of StPotIA and StPotIB against the NaPI-insensitive chymotrypsins from H punctigera was determined by preincubating the NaPI-insensitive protease (10 μL) with varying amounts of StPotIA and StPotIB (0-600 nM) in 133 mM CAPS buffer, pH 10.0 at 30° C. in 96 well microtitre plates. After the 30 min preincubation, the incubation was started by the addition of substrate (SA2PFpNA, SA2PLpNA or SA2PMpNA) to a final concentration of 1 mM in a final volume of 100 μL. Absorbance was measured at 405 nm after 30 or 60 min.", "note": "Some of these results come from one statement about several compounds together."}
{"molecule": "StPotIA: PotI homolog cloned from wounded potato leaf RNA, alanine at P1 site (SEQ ID NO:81); E. coli expressed, His-tagged (protein, His tag; potato, E. coli expressed, His-tagged) MESKFAHIIVFFLLATSFETLMARKEGDGSEVIKLLKESESESWCKGKQFWPELIGVPTKLAKEIIEKENPSINDVPIILNGTPVPADFRCNRVRLFDNILGDVVQIPRVA", "values": [{"measurement": "inhibition of SA2PFpNA or SA2PLpNA hydrolysis", "value": "At least 75%"}]}
